Measured values from patent US20060174355A1.
Results are given in words; binding and its absence hold for the method and conditions named. In cells and extracts the contact can be indirect. Some binding calls cover weakened binding; strength is not graded here. Sequences can lack the tags named with a protein.

Experiments:
[1] = molecular target: T1, GST-ERR3 (glutathione S-transferase-fused ERR3) (human) (UniProt P62508); assay: GST pull-down, autoradiograph (FIG. 3D)
T1 sequence (looked up): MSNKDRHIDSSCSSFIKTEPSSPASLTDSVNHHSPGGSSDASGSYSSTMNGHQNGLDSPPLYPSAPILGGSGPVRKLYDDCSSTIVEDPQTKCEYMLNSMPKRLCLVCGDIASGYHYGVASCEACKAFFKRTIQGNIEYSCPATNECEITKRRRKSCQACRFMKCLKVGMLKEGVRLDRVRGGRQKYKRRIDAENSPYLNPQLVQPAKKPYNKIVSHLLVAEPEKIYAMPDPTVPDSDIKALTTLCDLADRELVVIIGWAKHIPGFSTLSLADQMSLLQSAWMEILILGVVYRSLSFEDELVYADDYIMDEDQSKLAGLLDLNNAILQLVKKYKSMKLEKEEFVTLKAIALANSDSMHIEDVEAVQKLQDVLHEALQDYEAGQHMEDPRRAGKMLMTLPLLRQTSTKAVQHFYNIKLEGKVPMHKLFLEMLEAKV

[2] = molecular target: T1, GST-ERR3 (glutathione S-transferase-fused ERR3) (human); assay: GST pull-down of in vitro translated 35S-ERRL1, SDS-PAGE and autoradiography

B1: ERRL1 (ERR ligand 1), mouse (ligand)
chain: MAGNDCGALLDEELSSFFLNYLSDTQGGDSGEEQLCADLPELDLSQLDASDFDSATCFGELQWCPETSETEPSQYSPDDSELFQIDSENEALLAALTKTLDDIPEDDVGLAAFPELDEGDTPSCTPASPAPLSAPPSPTLERLLSPASDVDELSLLQKLLLATSSPTASSDALKDGATWSQTSLSSRSQRPCVKVDGTQDKKTPTLRAQSRPCTELHKHLTSVLPCPRVKACSPTPHPSPRLLSKEEEEEVGEDCPSPWLTPASPQDSLAQDTASPDSAQPPEEDVRAMVQLIRYMHTYCLPQRKLPQRAPEPIPQACSSLSRQVQPRSRHPPKAFWTEFSILRELLAQDILCDVSKPYRLAIPVYASLTPQSRPRPPKDSQASPAHSAMAEEVRITASPKSTGPRPSLRPLRLEVKRDVNKPTRQKREEDEEEEEEEEEEEEEKEEEEEEWGRKRPGRGLPWTKLGRKMDSSVCPVRRSRRLNPELGPWLTFTDEPLGALPSMCLDTETHNLEEDLGSLTDSSQGRQLPQGSQIPALESPCESGCGDTDEDPSCPQPTSRDSSRCLMLALSQSDSLGKKSFEESLTVELCGTAGLTPPTTPPYKPMEEDPFKPDTKLSPGQDTAPSLPSPEALPLTATPGASHKLPKRHPERSELLSHLQHATTQPVSQAGQKRPFSCSFGDHDYCQVLRPEAALQRKVLRSWEPIGVHLEDLAQQGAPLPTETKAPRREANQNCDPTHKDSMQLRDHEIRASLTKHFGLLETALEGEDLASCKSPEYDTVFEDSSSSSGESSFLLEEEEEEEEGGEEDDEGEDSGVSPPCSDHCPYQSPPSKASRQLCSRSRSSSGSSSCSSWSPATRKNFRRESRGPCSDGTPSVRHARKRREKAIGEGRVVYIRNLSSDMSSRELKKRFEVFGEIVECQVLTRSKRGQKHGFITFRCSEHAALSVRNGATLRKRNEPSFHLSYGGLRHFRWPRYTDYDPTSEESLPSSGKSKYEAMDFDSLLKEAQQSLH
- binding [1]: binds
- binding [2]: binds
